# ± gives the standard deviation. The entries are a selection whose mix differs from that of the whole data set. The uncertainty is large for many entries. The list shows a part of the results.
# Legend:
# [1] = test system: MILI (PIWIL2) piRISC loaded with L1MC piRNA (26 nt); assay: pre-steady-state target cleavage rate (min^-1); higher = faster piRNA-guided slicing of the target; conditions: guide: L1MC piRNA 5'p-UAACUAAAUACUAUGCAAGCUGUAGG
# Summary of the method: (§1)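 Active affinity-purified piRISC (1 nM) loaded with one synthetic guide was mixed with a transcribed, DNA-blocked target RNA library (0.1 nM), with or without 500 nM GTSF1 partner protein, in HEPES–potassium acetate buffer at 33 °C for 0–8 or 0–960 min. Uncleaved targets were sequenced, normalised to depth and to weakly complementary targets, and pooled across three trials, with k3 capped at 0.0001 min^-1. The pre-steady-state cleavage rate was determined with a burst-and-steady-state fit.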
# [2] = test system: EfPiwi piRISC loaded with L1MC piRNA (26 nt); assay: pre-steady-state target cleavage rate (min^-1); guide: L1MC piRNA 5'p-UAACUAAAUACUAUGCAAGCUGUAGG; MIWI and MILI are mouse PIWI proteins and EfPiwi is from a freshwater sponge; tags in brackets are library labels; higher = faster piRNA-guided slicing of the target
# Summary of the method: as §1
# [3] = auxiliary factor: 500 nM mouse GTSF1
# [4] = auxiliary factor: none (no GTSF1)
# [5] = auxiliary factor: 500 nM Ephydatia muelleri Gtsf1
# [6] = auxiliary factor: none (no Gtsf1)
Sequence,"pre-steady-state target cleavage rate [1, 3]","pre-steady-state target cleavage rate [1, 4]","pre-steady-state target cleavage rate [2, 5]","pre-steady-state target cleavage rate [2, 6]"
UCCUGCUACUGCUUGCUUAGUAUUUAGUUA,0.202 ± 0.022,0.00589 ± 0.002,0.0076 ± 0.0022,–
UCCUGGAUGAGCUUGCAUACUAUUUACAAA,0.00213 ± 0.0061,0.000267 ± 0.025,0.00184 ± 0.0023,–
UCCUCCUACAGCUUGCUUUGUAUUUAGUUA,0.18 ± 0.017,0.00401 ± 0.0023,0.0093 ± 0.0052,–
UCCUCCUACAGCUUGGAUAGUAUUUUGUUA,0.164 ± 0.028,0.00424 ± 0.0026,0.00565 ± 0.0022,–
UCCUGGAUGAUCUUGCAUAGUAUUUAGUUA,0.145 ± 0.016,0.00813 ± 0.003,0.0779 ± 0.023,–
UCCUGGAUGAGCUUGCAUCGUAUUUAGUUA,0.0594 ± 0.0092,0.00554 ± 0.0025,0.00975 ± 0.0029,–
UCCUGGUACAGCUUGCAUAGUAUUUAGAUA,0.149 ± 0.033,0.00493 ± 0.0028,–,0.000562 ± 0.02
UCCUGGAACAGCUUGCAUAGUAUUUAGCUUA,0.195 ± 0.047,0.00202 ± 0.004,0.00529 ± 0.0018,–
UCCUGGUACAGCUUGCAAGUAUUUAGUUA,0.113 ± 0.014,0.00636 ± 0.0022,–,0.000822 ± 0.012
UCCUGGUACAGCUUGCUAAGUAUUUAGUAA,0.036 ± 0.012,0.00141 ± 0.0042,0.0016 ± 0.0052,–
UCCUGCUACAGCUUGCAAAGUAUUAAGUUA,0.146 ± 0.019,0.00367 ± 0.0025,0.00445 ± 0.0021,–
UCCUGGAUGUGCUUGCAUAGUUUUUAGAUA,0.00296 ± 0.0065,0.00131 ± 0.0053,0.000583 ± 0.0068,–
UCCUCCUAGAGCUUGCAUAGUAAUUAGUUA,0.264 ± 0.029,0.00317 ± 0.0031,0.011 ± 0.0039,–
UCCUGGAACCGCUUGCAUAGUAUUUAGUUA,0.265 ± 0.015,0.0108 ± 0.002,0.0172 ± 0.0054,–
UCCUGGUACAGCUUGCAUUGUAUUUACUUA,0.05 ± 0.015,0.00144 ± 0.0052,0.000962 ± 0.0051,–
UCCUCCUACAGCUUGCUUAGUAUUUAGAUA,0.15 ± 0.018,0.00198 ± 0.0026,0.00689 ± 0.0038,–
UCCUGGAUCGGCUUGCAUAGUAUUUAGUUA,0.261 ± 0.016,0.0131 ± 0.0022,0.0523 ± 0.0092,–
UCCUGCUAAGCUUGCAUAGUAUUUAGUUA,0.182 ± 0.018,0.00403 ± 0.0019,0.00771 ± 0.0024,–
UCCUGGAUGUGCUUGCAUACAAUUUAGAAA,0.000815 ± 0.011,0.000546 ± 0.012,0.000236 ± 0.017,–
UCCUGGAUGUCGAUGGAUAGUAUUUAGUAA,0.00684 ± 0.0036,0.000511 ± 0.0084,0.000303 ± 0.0088,–
UCCUGGUACAGCUAUGCAUAGUAUUUAGUUA,0.259 ± 0.016,0.0112 ± 0.0038,0.0292 ± 0.0094,–
UCCUGGAACAGCUUGCAUAGUAUUAAGUAA,0.0909 ± 0.024,0.000961 ± 0.0073,0.00572 ± 0.0023,–
UCCUGGAUCAGCUUGCAUACUUUUUAGUUA,0.00227 ± 0.0053,0.00168 ± 0.0041,0.00206 ± 0.003,–

Sequence,"pre-steady-state target cleavage rate [1, 3]","pre-steady-state target cleavage rate [1, 4]","pre-steady-state target cleavage rate [2, 5]","pre-steady-state target cleavage rate [2, 6]"
UCCUGGUACAGCUUGCAUAGUAUUAAGUAA,0.128 ± 0.035,0.00168 ± 0.0047,–,0.000676 ± 0.014
UCCUGGUACAGCAUGCAUAGAAUUUAGUUA,0.197 ± 0.07,0.0019 ± 0.0057,0.000831 ± 0.015,–
UCCUGGAUGAGCUUGCAUUGUAUUUAGUAA,0.127 ± 0.021,0.00311 ± 0.0025,0.00311 ± 0.0025,–
UCCUGCUACAGCUUGCAUAGAAUUAAGUUA,0.048 ± 0.012,0.00164 ± 0.0033,–,0.000557 ± 0.011
UCCUGGAUGAGCUUGGAUAGAAUUUAGUUA,0.0131 ± 0.0067,0.00155 ± 0.0048,0.000536 ± 0.0092,–
UCCUCCUACACCUUGCAUAGUAUUUAGUAA,0.226 ± 0.037,0.0033 ± 0.0026,0.00625 ± 0.003,–
UCCUGGAUGUCCUUGCACAGUAUUUAGUUA,0.145 ± 0.028,0.00389 ± 0.0023,0.00454 ± 0.0024,–
UCCUGGAUCAGCUUGCAUAGUAUGUUAGUUA,0.199 ± 0.017,0.00633 ± 0.0025,–,0.00269 ± 0.0043
UCCUGGAUGACCUUGCAUUGUAUUUAGUUA,0.0617 ± 0.0098,0.00446 ± 0.0029,0.000597 ± 0.01,–
UCCUGGAUGUCGAUGCAAAGUAUAUAGUUA,0.00242 ± 0.0041,0.00102 ± 0.0059,–,0.000434 ± 0.02
UCCUCCAACAGCUUGCUUAGUAUUUAGUUA,0.262 ± 0.017,0.0066 ± 0.0021,0.0148 ± 0.0053,–
UCCUGCAACAGCUUGCAUAGUAUUUUGUUA,0.179 ± 0.023,0.00262 ± 0.0031,–,0.00026 ± 0.021
UCCUGGAUGUGCAUGCAAAGUAUUUAGUUA,0.0175 ± 0.0048,0.00933 ± 0.0024,0.000478 ± 0.011,–
UCCUGGAUGUCCUUGCAUAGUAAUUAGUUA,0.111 ± 0.019,0.00618 ± 0.0018,0.00215 ± 0.0034,–
UCCUCCUAGAGCUUGCAUAGUAUUAAGUUA,0.279 ± 0.035,0.00261 ± 0.0029,0.00604 ± 0.0026,–
UCCUGGUACAGCUUGCUUACUAUUUAGUUA,0.0679 ± 0.012,0.00375 ± 0.0027,–,0.000749 ± 0.011
UCCUGGAACUGCUUGCAAAGUAUUUAGUUA,0.117 ± 0.01,0.00518 ± 0.0021,0.0228 ± 0.008,–
UCCUGGUACAGCUUGCAUAAUAUUUAGUUA,0.338 ± 0.068,0.0064 ± 0.0032,0.00307 ± 0.0027,–
UCCUGCUACAGUUUGCAUAGUAUUUAGUUA,0.296 ± 0.015,0.0106 ± 0.0023,0.0365 ± 0.011,–
UCCUGGAUCAGCAUGCAAAGUAUUUAGUUA,0.098 ± 0.011,0.0074 ± 0.0018,0.0037 ± 0.0031,–
UCCUGGAACAGCUUGCAUAUUAUUUAGUUA,0.0696 ± 0.008,0.00259 ± 0.0029,0.0169 ± 0.0055,–
UCCUGGUACAGCUUGCAUAGUAUUUAGUUU [g2:g24:cont:t1U],0.249 ± 0.016,0.0218 ± 0.0053,0.117 ± 0.038,–
UCCUGGAUGAGCUUUGCAUAGUAUUUAGUUA,0.181 ± 0.013,0.0103 ± 0.0021,0.0107 ± 0.0037,–

# Reprinted at random: three entries already listed, in no set order.
Sequence,"pre-steady-state target cleavage rate [1, 3]","pre-steady-state target cleavage rate [1, 4]","pre-steady-state target cleavage rate [2, 5]","pre-steady-state target cleavage rate [2, 6]"
UCCUGGAUCGGCUUGCAUAGUAUUUAGUUA,0.261 ± 0.016,0.0131 ± 0.0022,0.0523 ± 0.0092,–
UCCUGGAACAGCUUGCAUAGUAUUUAGCUUA,0.195 ± 0.047,0.00202 ± 0.004,0.00529 ± 0.0018,–
UCCUGGAUGAGCUUGCAUACUAUUUACAAA,0.00213 ± 0.0061,0.000267 ± 0.025,0.00184 ± 0.0023,–

# Reference: the supplement of paper PMC10338343
